The list shows a part of the results.

This assay relates to Caenorhabditis elegans N2. As to the kind of experiment: aldicarb interaction hit call (worm growth perturbed in combination with 10 uM aldicarb in both replicates, no effect as single agent) (binary (1 = interacts)); higher = interacts with aldicarb (growth perturbed). The conditions noted are these: first compound 1.5 µM; aldicarb concentration 10 µM; 6 days; 20 °C.
`COc1ccc(S(=O)(=O)N2CCCCCC2)c(C)c1C` [wact-583] + CNC(=O)O/N=C/C(C)(C)SC [aldicarb]: the “aldicarb interaction hit call” value was inactive: 0.

As to `Cc1cccc(C)c1OCc1cc(C(=O)N2CCC(c3ccncc3)CC2)no1` [dafadine-A] + CNC(=O)O/N=C/C(C)(C)SC [aldicarb], the “aldicarb interaction hit call” value was inactive: 0.

In the case of `COC(=O)C1=C(C)NC2=C(C(=O)CC(c3cccs3)C2)C1c1cccc(O)c1` (configuration not stated) [wact-468] + CNC(=O)O/N=C/C(C)(C)SC [aldicarb], the “aldicarb interaction hit call” value is inactive: 0.

For `O=C(Nc1ccc(N2CCN(C(=O)c3ccco3)CC2)c(Cl)c1)c1ccc(F)cc1` [wact-228] + CNC(=O)O/N=C/C(C)(C)SC [aldicarb], the “aldicarb interaction hit call” value is inactive: 0.

For `Cc1ccc(C(=O)/C=C(\c2ccccc2)N2CCCCC2)cc1` [wact-379] + CNC(=O)O/N=C/C(C)(C)SC [aldicarb], the “aldicarb interaction hit call” value is inactive: 0.

`Fc1ccc(-c2cn3ccsc3n2)cc1` [wact-433] + CNC(=O)O/N=C/C(C)(C)SC [aldicarb]: the “aldicarb interaction hit call” value was inactive: 0.

On to `O=[N+]([O-])c1cccc(COc2ccc(F)cc2)c1` [wact-513] + CNC(=O)O/N=C/C(C)(C)SC [aldicarb], for which the “aldicarb interaction hit call” value was inactive: 0.

On to `COc1cc(C2NC(=S)NC(c3ccccc3)=C2C(C)=O)cc(Br)c1OC(C)C` (configuration not stated) [wact-225] + CNC(=O)O/N=C/C(C)(C)SC [aldicarb], for which the “aldicarb interaction hit call” value was inactive: 0.

Consider `COc1cccc(-c2noc(-c3cccs3)n2)c1` [wact-136] + CNC(=O)O/N=C/C(C)(C)SC [aldicarb], for which the “aldicarb interaction hit call” value was inactive: 0.

Turning to `Clc1cc(Br)ccc1OCCNC1CCCC1.O=C(O)C(=O)O` [wact-95] + CNC(=O)O/N=C/C(C)(C)SC [aldicarb], the “aldicarb interaction hit call” value is inactive: 0.

Regarding `O=[N+]([O-])c1ccc(NC(=S)NCc2ccc(F)cc2)cc1` [wact-467] + CNC(=O)O/N=C/C(C)(C)SC [aldicarb], the “aldicarb interaction hit call” value was inactive: 0.

With `Clc1ccc(-c2noc(CSc3ccccc3)n2)cc1` [wact-14] + CNC(=O)O/N=C/C(C)(C)SC [aldicarb], the “aldicarb interaction hit call” value is inactive: 0.

For the origin of these results see the supplement of paper PMC5393889.
